# Measured values taken from patent publication US20250179200A1 (UNIVERSITY OF CHICAGO, published 2025).
# Amino acid sequences for entries named in this document (tags omitted). A change or cut given only in a name is not applied to a line headed by its entry. Chains listed by the source or under a name are the forms on record and can include a tag or linker. Residues count along the entry.
# Growth Hormone Receptor (GHR) immobilized on a high binding plate (P10912, residues 19-264): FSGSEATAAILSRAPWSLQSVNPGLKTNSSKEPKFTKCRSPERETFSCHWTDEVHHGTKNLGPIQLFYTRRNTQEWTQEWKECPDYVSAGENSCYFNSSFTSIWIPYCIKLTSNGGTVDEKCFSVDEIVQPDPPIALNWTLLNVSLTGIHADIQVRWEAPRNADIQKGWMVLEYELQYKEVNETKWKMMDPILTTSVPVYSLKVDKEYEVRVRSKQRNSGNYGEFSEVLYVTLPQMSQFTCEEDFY
# GHR-Fc-10× His (human) (P10912, form named): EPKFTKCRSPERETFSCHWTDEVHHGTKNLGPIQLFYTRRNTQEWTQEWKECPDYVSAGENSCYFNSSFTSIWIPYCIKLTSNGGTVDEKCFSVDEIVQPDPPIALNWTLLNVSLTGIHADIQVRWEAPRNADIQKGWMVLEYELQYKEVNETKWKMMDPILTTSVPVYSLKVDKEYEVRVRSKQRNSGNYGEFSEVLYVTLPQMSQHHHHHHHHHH
# Changes are numbered by the printed parent chain. No constants are given. Whether binding was seen depends on the method and setting. Some results given as binding are weak or reduced against the parent protein; the word gives no strength.
# B1: GHR_TS10 Fab (Fab, V domains shown)
# VH: EVQLVESGGGLVQPGGSLRLSCAASGFNFSSSYIHWVRQAPGKGLEWVAYISPSSGYTSYADSVKGRFTISADTSKNTAYLQMNSLRAEDTAVYYCARQYYGGWYGFGMDYWGQGTLVTVSS
# VL: DIQMTQSPSSLSASVGDRVTITCRASQSVSSAVAWYQQKPGKAPKLLIYSASSLYSGVPSRFSGSRSGTDFTLTISSLQPEDFATYYCQQWHSYLITFGQGTKVEIKR
# B2: GHR_TS40 Fab (Fab, V domains shown)
# VH: EVQLVESGGGLVQPGGSLRLSCAASGFNVSYYYIHWVRQAPGKGLEWVASIYPSSGYTSYADSVKGRFTISADTSKNTAYLQMNSLRAEDTAVYYCARYYWPASYWSGYSALDYWGQGTLVTVSS
# VL: B1 VL with W91Y, H92P, S93W, Y94G
# B3: GHR6 Fab (Fab, V domains shown)
# VH: EVQLVESGGGLVQPGGSLRLSCAASGFNVYYSSIHWVRQAPGKGLEWVASIYSSYGYTSYADSVKGRFTISADTSKNTAYLQMNSLRAEDTAVYYCARGQWSGLSGYWEYKALDYWGQGTLVTVSS
# VL: DIQMTQSPSSLSASVGDRVTITCRASQSVSSAVAWYQQKPGKAPKLLIYSASSLYSGVPSRFSGSRSGTDFTLTISSLQPEDFATYYCQQVGGSSLITFGQGTKVEIKR
# notes: Fab
# B4: GHR2 Fab (Fab, V domains shown)
# VH: EVQLVESGGGLVQPGGSLRLSCAASGFNLYYSSIHWVRQAPGKGLEWVAYISPSYGSTSYADSVKGRFTISADTSKNTAYLQMNSLRAEDTAVYYCARYYDYSWPWYWHGGGPAFDYWGQGTLVTVSS
# VL: B3 VL with V91Y, G92E, G93E, S94Y, S95P
# notes: Fab
# B5: GHR10 Fab (Fab, V domains shown)
# VH: EVQLVESGGGLVQPGGSLRLSCAASGFNFSYYSIHWVRQAPGKGLEWVASISSYYGSTSYADSVKGRFTISADTSKNTAYLQMNSLRAEDTAVYYCARTEYSFGMYWAHTGMDYWGQGTLVTVSS
# VL: B3 VL with V91F, G92W, G93S, S95E, L96P
# notes: Fab
# B6: GHR5 Fab (Fab, V domains shown)
# VH: EVQLVESGGGLVQPGGSLRLSCAASGFNVSYYSIHWVRQAPGKGLEWVAYISPSSGSTSYADSVKGRFTISADTSKNTAYLQMNSLRAEDTAVYYCARMYWQGGYSSYWQSYAMDYWGQGTLVTVSS
# VL: B3 VL with V91K, G92S, G93Q, S94Y, I97V
# notes: Fab
# B7: GHR15 Fab (Fab, V domains shown)
# VH: EVQLVESGGGLVQPGGSLRLSCAASGFNVSSSSIHWVRQAPGKGLEWVASIYSYYGYTSYADSVKGRFTISADTSKNTAYLQMNSLRAEDTAVYYCARSSGYHGWYWNGMDYWGQGTLVTVSS
# VL: B3 VL with V91W, G92Y, S94M, I97V
# notes: Fab
# B8: GHR14 Fab (Fab, V domains shown)
# VH: EVQLVESGGGLVQPGGSLRLSCAASGFNISSSYIHWVRQAPGKGLEWVASISSYYGYTSYADSVKGRFTISADTSKNTAYLQMNSLRAEDTAVYYCARSYGSYYGYYHYWEWYGLDYWGQGTLVTVSS
# VL: B3 VL with V91W, G92Q, G93Y, S94W, L96P, I97V
# notes: Fab
# B9: GHR9 Fab (Fab, V domains shown)
# VH: EVQLVESGGGLVQPGGSLRLSCAASGFNVSYSSIHWVRQAPGKGLEWVASISSSYGSTYYADSVKGRFTISADTSKNTAYLQMNSLRAEDTAVYYCARYYDYSWSTYKGIGTGAIDYWGQGTLVTVSS
# VL: B3 VL with V91Y, G92W, G93Y, S95Y
# notes: Fab
# B10: GHR13 Fab (Fab, V domains shown)
# VH: EVQLVESGGGLVQPGGSLRLSCAASGFNVYYSSIHWVRQAPGKGLEWVAYIYPSSGSTSYADSVKGRFTISADTSKNTAYLQMNSLRAEDTAVYYCARSWQWYYPGWEQYGWYGMDYWGQGTLVTVSS
# VL: B1 VL with W91S, H92G, S93G, Y94S, I96V
# notes: Fab
# B11: GHR8 Fab (Fab, V domains shown)
# VH: EVQLVESGGGLVQPGGSLRLSCAASGFNISYSSIHWVRQAPGKGLEWVASIYSSYGSTYYADSVKGRFTISADTSKNTAYLQMNSLRAEDTAVYYCARSYIYSQPGFYYDSYALDYWGQGTLVTVSS
# VL: B1 VL with W91Y, H92G, Y94W
# notes: Fab
# B12: GHR1 Fab (Fab, V domains shown)
# VH: EVQLVESGGGLVQPGGSLRLSCAASGFNVSYSSIHWVRQAPGKGLEWVAYIYSSYGSTYYADSVKGRFTISADTSKNTAYLQMNSLRAEDTAVYYCAREYWPYYSQTGGSAMDYWGQGTLVTVSS
# VL: B1 VL with W91S, H92M, S93H, Y94P
# notes: Synthetic human Fab from phage display, expressed in E. coli
# B13: GHR4 Fab (Fab, V domains shown)
# VH: EVQLVESGGGLVQPGGSLRLSCAASGFNVYYSYIHWVRQAPGKGLEWVAYISPYSGSTSYADSVKGRFTISADTSKNTAYLQMNSLRAEDTAVYYCARQEWYAFDYWGQGTLVTVSS
# VL: B1 VL with W91Y, H92W
# notes: Fab; also called FAB4
# B14: GHR7 Fab (Fab, V domains shown)
# VH: EVQLVESGGGLVQPGGSLRLSCAASGFNFSYSSIHWVRQAPGKGLEWVAYISSYYGYTSYADSVKGRFTISADTSKNTAYLQMNSLRAEDTAVYYCARLQHPSWYYYQGYHSGMDYWGQGTLVTVSS
# VL: B1 VL with W91Y, H92W, Y94S
# notes: Fab
# B15: GHR11 Fab (Fab, V domains shown)
# VH: EVQLVESGGGLVQPGGSLRLSCAASGFNLSYYYIHWVRQAPGKGLEWVASIYSSSGYTYYADSVKGRFTISADTSKNTAYLQMNSLRAEDTAVYYCARQYPYSWSSYGFSSGALDYWGQGTLVTVSS
# VL: DIQMTQSPSSLSASVGDRVTITCRASQSVSSAVAWYQQKPGKAPKLLIYSASSLYSGVPSRFSGSRSGTDFTLTISSLQPEDFATYYCQQYFAYYSPITFGQGTKVEIKR
# notes: Fab
# B16: GHR16 Fab (Fab, V domains shown)
# VH: EVQLVESGGGLVQPGGSLRLSCAASGFNFSSSSIHWVRQAPGKGLEWVAYISPYYGSTSYADSVKGRFTISADTSKNTAYLQMNSLRAEDTAVYYCARSWYSTYDYRMHVWHQGGLDYWGQGTLVTVSS
# VL: B15 VL with Y91S, F92I, A93S, Y95S, S96Y, P97L
# Target: Growth Hormone Receptor (GHR) immobilized on a high binding plate (UniProt P10912)
# Assay: competition ELISA: Fab prebound to plate-bound GHR, challenged with B2036 up to 1000 nM, anti-human Fab-HRP
row,Binder,binding
1,B1,binds
2,B2,binds

# Target: Growth Hormone Receptor (GHR) immobilized on a high binding plate (UniProt P10912)
# Assay: competition ELISA: Fab prebound to plate-bound GHR, challenged with GH 1 to 2000 nM, anti-human Fab-HRP
row,Binder,binding
1,B1,binds
2,B2,binds

# Target: GHR-Fc-10× His (human) (human) (UniProt P10912)
# Assay: SPR, GHR-Fc-10× His on Ni-NTA chip, Fab as analyte
row,Binder,binding
1,B3,binds
2,B4,binds
3,B5,binds
4,B6,binds
5,B7,binds
6,B8,binds
7,B9,binds
8,B10,binds
9,B11,binds
10,B12,binds
11,B13,binds
12,B14,binds
13,B15,binds
14,B16,binds

# Target: Growth Hormone Receptor (GHR) immobilized on a high binding plate (UniProt P10912)
# Assay: competition ELISA: Fab titrated on plate-bound GHR preincubated with 200 nM GH, anti-human Fab-HRP
row,Binder,binding
1,B1,binds
2,B2,binds

# Target: GHR-Fc-10× His (human) (human) (UniProt P10912)
# Assay: SPR epitope binning, second Fab injected in equal molar mixture with GHR3 on GHR saturated with GHR3
row,Binder,binding
1,B3,binds
